Where two headings read alike, the source gives them in different places. Results are given in words; binding and its absence hold for the method and conditions named. In cells and extracts the contact can be indirect. Some binding calls cover weakened binding; strength is not graded here. For some assays here: Sequences can lack the tags named with a protein. Blank lines part the entries; values can stand above or below the molecule they belong to.
Columns and labels:
[1] = molecular target: Lpd-EGFP fusion protein (human Lamellipodin) (human) (UniProt Q70E73); assay: co-IP
[2] = molecular target: Lpd-EGFP fusion protein (human Lamellipodin) (human) (UniProt Q70E73); assay: co-IP; remark: listed apart in the source

The chains behind the UniProt entries cited, without tags or fusion partners. Where a name states a change or a piece, a line headed by the entry shows the natural chain unless it says otherwise.
UniProt Q70E73, whole entry: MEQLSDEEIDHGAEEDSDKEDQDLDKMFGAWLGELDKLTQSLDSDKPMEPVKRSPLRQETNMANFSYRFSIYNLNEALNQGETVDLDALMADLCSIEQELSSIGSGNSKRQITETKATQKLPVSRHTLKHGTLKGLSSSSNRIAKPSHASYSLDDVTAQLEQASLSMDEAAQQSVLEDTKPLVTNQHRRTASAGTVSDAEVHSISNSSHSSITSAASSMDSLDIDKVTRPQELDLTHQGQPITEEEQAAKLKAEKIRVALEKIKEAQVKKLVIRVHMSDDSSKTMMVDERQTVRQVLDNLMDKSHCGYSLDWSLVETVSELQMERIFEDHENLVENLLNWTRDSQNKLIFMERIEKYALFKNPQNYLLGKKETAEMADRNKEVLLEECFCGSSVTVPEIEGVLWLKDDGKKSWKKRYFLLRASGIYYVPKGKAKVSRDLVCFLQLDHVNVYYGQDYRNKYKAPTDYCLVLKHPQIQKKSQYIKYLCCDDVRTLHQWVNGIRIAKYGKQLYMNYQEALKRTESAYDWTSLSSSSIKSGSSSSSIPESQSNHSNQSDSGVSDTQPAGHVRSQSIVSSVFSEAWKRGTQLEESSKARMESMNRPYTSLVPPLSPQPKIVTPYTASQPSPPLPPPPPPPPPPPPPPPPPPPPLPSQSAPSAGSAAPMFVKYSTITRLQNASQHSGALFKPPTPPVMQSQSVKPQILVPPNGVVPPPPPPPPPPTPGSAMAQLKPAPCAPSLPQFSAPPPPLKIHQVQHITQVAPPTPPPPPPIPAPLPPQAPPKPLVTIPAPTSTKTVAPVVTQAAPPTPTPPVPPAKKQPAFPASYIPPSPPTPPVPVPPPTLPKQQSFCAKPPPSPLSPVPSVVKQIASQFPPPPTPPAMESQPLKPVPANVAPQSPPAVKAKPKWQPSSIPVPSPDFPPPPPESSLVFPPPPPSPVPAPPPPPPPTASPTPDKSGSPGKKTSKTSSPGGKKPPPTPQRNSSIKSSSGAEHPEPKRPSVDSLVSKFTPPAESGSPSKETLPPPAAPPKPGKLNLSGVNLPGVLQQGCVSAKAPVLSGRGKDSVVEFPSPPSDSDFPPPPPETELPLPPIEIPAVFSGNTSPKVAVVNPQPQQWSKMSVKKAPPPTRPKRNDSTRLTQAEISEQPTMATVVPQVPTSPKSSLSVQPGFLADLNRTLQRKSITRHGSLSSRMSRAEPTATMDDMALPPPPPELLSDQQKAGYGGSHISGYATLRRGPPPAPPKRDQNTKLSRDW
UniProt P49841, whole entry, looked up, stated change not applied: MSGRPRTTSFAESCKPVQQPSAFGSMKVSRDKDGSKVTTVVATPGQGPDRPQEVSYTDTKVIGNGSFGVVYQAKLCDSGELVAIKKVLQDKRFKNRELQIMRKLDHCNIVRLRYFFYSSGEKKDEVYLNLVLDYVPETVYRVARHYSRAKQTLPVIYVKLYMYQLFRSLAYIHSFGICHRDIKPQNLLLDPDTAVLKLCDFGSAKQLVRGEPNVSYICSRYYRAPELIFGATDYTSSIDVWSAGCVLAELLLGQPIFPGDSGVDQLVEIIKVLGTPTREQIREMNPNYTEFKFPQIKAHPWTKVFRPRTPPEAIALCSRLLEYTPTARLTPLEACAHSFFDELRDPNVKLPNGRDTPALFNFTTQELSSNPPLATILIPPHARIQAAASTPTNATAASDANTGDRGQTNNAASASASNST

binding [1]: binds weakly
Molecule: constitutively active HA-tagged GSK3β (HA-GSK3β-DA; GSK3 beta S9A) (from UniProt P49841 1-420) (enzyme)

binding [2]: binds
B1: Myc-EVL (murine) (protein, UniProt P70429 1-414)
chain: MSEQSICQARASVMVYDDTSKKWVPIKPGQQGFSRINIYHNTASSTFRVVGVKLQDQQVVINYSIVKGLKYNQATPTFHQWRDARQVYGLNFASKEEATTFSNAMLFALNIMNSQEGGPSTQRQVQNGPSPEEMDIQRRQVMEQQHRQESLERRISATGPILPPGHPSSAASTTLSCSGPPPPPPPPVPPPPTGSTPPPPPPLPAGGAQGTNHDESSASGLAAALAGAKLRRVQRPEDASGGSSPSGTSKSDANRASSGGGGGGLMEEMNKLLAKRRKAASQTDKPADRKEDESQTEDPSTSPSPGTRATSQPPNSSEAGRKPWERSNSVEKPVSSLLSRTPSVAKSPEAKSPLQSQPHSRVKPAGSVNDVGLDALDLDRMKQEILEEVVRELHKVKEEIIDAIRQELSGISTT
